Reference: the supplement of paper PMC10849652
Some of the results follow.

By UniProt entry, the sequences of proteins in these tests, tags left out. Where a name states a change or a piece, a line headed by the entry shows the natural chain unless it says otherwise.
UniProt Q8IZR5: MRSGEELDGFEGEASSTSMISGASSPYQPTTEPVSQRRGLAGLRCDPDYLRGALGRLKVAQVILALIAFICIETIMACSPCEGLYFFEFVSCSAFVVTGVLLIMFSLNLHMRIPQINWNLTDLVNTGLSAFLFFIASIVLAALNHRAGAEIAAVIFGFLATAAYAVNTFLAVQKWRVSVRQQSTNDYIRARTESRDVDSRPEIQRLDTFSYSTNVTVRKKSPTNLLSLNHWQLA
UniProt Q8IYA6: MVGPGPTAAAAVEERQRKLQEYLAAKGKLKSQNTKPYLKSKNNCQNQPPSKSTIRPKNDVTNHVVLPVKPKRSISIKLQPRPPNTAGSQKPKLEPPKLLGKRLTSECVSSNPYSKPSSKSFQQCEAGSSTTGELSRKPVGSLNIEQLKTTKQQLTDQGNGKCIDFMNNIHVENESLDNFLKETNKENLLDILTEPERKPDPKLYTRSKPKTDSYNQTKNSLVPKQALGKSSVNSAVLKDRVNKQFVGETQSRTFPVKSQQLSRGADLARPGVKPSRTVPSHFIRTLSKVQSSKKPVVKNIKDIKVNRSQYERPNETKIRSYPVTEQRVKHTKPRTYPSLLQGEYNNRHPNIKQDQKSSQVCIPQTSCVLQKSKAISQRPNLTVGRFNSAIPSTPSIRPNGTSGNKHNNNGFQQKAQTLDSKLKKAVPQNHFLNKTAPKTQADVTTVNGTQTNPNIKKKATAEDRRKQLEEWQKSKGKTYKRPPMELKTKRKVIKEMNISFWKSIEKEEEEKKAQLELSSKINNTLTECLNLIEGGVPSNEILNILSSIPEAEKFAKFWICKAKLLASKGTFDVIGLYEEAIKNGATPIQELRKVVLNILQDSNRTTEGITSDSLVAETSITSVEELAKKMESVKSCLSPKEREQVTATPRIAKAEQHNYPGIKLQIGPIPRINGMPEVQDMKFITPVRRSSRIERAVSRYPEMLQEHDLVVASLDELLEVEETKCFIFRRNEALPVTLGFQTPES
UniProt Q9NX76: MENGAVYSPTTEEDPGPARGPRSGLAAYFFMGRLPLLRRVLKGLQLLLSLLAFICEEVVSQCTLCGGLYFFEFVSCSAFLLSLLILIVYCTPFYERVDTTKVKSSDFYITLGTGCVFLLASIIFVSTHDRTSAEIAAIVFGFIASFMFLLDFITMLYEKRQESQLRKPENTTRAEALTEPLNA
UniProt Q9P2E5: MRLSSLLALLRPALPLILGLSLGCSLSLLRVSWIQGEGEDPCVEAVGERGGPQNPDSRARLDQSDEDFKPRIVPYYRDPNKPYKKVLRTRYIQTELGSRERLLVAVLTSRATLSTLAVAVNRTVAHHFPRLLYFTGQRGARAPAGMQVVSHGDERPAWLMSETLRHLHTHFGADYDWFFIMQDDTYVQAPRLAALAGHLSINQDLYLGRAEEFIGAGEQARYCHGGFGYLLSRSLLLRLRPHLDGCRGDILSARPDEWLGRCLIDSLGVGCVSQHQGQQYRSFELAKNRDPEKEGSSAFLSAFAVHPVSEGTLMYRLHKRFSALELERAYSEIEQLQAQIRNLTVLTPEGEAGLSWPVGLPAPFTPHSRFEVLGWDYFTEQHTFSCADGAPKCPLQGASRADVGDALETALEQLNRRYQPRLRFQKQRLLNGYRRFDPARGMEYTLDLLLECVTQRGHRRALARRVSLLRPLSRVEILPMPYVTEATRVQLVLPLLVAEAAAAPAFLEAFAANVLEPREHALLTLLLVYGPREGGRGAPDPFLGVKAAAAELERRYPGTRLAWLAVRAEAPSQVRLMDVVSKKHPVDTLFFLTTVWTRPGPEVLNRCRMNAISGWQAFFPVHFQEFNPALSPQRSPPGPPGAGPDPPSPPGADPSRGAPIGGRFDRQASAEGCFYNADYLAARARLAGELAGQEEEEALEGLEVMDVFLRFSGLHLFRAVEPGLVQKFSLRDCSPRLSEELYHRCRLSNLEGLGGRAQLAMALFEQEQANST
UniProt Q96AJ1: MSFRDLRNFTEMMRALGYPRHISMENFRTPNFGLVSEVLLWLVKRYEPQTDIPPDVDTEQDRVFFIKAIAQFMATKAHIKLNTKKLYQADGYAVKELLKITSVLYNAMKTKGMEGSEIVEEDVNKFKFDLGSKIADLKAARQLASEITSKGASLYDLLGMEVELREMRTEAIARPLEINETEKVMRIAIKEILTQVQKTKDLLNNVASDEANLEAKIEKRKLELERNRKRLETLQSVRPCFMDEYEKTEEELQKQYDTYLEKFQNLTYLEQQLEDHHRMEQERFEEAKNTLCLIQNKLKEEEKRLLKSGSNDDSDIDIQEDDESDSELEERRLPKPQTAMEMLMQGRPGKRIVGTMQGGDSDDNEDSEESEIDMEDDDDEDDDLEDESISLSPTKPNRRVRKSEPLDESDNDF
UniProt Q9UDT6: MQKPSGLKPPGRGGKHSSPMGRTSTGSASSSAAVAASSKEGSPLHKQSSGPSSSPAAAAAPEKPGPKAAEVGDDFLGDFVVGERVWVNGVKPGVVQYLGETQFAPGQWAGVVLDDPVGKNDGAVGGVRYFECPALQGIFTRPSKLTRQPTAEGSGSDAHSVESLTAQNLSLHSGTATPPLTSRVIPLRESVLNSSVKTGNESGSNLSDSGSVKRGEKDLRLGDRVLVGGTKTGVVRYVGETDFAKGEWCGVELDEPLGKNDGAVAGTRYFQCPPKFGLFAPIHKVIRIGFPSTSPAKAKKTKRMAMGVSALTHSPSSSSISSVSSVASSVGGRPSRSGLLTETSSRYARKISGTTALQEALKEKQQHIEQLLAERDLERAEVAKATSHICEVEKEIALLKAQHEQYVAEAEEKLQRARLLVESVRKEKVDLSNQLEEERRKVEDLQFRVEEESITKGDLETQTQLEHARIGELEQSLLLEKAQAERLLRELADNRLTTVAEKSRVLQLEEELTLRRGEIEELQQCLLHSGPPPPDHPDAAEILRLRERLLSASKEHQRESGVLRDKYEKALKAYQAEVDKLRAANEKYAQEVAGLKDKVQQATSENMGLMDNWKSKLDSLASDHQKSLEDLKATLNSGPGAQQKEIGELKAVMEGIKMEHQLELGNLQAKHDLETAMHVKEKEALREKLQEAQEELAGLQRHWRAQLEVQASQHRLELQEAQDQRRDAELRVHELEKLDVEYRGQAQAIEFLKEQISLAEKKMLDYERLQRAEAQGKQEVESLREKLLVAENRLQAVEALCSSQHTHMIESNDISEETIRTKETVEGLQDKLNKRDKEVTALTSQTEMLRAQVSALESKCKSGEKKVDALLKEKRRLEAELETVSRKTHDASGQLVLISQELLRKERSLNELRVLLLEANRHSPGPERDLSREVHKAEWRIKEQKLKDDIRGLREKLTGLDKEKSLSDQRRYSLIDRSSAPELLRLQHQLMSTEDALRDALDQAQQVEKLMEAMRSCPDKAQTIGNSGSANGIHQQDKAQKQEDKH
UniProt Q8N3C7: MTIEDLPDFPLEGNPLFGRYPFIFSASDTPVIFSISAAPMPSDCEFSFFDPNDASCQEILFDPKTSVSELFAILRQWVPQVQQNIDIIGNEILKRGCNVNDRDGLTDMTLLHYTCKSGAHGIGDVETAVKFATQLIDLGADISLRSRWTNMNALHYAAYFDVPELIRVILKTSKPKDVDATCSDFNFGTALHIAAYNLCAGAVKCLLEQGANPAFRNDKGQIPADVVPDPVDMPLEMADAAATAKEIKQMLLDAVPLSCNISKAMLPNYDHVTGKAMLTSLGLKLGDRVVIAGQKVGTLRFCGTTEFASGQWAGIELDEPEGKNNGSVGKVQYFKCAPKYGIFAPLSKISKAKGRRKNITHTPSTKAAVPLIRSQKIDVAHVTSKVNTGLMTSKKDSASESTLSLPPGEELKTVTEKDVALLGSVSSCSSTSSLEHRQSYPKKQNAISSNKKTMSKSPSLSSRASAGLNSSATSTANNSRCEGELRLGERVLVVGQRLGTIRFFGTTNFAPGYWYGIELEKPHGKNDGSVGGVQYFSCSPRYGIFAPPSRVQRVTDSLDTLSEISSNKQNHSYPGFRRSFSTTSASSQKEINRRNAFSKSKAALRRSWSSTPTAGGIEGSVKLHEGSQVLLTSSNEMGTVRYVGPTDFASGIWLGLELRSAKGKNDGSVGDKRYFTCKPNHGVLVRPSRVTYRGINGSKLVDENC
UniProt Q96NY7: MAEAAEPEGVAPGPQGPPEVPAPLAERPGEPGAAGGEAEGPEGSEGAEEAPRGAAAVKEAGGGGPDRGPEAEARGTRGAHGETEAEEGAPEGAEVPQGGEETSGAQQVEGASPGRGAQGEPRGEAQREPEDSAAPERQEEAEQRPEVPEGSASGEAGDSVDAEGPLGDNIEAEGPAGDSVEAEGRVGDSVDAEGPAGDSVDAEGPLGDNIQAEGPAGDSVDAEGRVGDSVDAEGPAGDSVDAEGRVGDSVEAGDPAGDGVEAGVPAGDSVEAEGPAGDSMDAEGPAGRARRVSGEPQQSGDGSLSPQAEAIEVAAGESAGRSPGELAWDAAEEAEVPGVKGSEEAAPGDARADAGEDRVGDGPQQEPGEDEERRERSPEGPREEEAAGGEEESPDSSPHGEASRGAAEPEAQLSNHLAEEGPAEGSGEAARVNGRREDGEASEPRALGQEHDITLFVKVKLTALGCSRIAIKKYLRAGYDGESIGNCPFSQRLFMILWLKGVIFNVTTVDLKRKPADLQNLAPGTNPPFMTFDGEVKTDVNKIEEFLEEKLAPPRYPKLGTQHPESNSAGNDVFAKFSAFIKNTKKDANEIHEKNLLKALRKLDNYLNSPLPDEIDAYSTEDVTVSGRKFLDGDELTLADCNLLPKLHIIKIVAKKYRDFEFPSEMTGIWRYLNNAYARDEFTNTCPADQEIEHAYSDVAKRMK
UniProt P56749: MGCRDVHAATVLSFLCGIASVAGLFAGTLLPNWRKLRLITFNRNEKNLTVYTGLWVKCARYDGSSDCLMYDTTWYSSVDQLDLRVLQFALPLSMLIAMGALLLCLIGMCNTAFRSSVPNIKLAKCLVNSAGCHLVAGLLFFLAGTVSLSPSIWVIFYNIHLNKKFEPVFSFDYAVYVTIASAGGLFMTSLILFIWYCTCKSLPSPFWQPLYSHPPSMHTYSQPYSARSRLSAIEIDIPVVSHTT
UniProt P49761: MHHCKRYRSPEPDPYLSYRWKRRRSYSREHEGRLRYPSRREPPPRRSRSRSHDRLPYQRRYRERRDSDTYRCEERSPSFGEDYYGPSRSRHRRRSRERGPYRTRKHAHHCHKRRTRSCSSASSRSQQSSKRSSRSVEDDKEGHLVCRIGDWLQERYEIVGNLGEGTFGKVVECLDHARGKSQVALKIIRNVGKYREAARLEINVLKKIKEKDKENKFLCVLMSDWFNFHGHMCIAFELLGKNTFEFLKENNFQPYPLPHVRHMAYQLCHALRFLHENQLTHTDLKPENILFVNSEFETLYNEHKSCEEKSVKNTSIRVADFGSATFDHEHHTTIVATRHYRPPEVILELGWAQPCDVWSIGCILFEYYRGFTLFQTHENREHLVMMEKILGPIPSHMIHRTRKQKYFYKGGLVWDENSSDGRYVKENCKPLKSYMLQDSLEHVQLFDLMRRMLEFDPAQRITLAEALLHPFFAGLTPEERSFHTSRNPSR
UniProt Q8N2M8: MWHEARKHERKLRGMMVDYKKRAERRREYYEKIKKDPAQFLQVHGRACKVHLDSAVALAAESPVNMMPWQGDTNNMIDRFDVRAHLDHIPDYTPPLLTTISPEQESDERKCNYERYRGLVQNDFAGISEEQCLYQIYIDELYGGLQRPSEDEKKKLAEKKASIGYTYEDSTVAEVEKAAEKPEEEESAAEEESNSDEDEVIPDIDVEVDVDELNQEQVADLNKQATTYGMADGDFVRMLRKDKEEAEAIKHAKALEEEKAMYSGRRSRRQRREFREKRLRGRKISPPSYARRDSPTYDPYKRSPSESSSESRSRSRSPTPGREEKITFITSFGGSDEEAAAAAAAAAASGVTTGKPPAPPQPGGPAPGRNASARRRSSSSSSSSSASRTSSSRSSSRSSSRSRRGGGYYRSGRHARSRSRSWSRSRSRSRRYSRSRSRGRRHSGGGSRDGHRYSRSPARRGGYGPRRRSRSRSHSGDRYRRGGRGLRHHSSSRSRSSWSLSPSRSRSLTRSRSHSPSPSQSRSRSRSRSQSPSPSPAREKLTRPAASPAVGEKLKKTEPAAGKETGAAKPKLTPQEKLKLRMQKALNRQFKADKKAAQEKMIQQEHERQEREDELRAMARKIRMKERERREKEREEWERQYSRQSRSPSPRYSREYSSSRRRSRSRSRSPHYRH

Experiments:
Test in all cases: log2 fold change, soluble protein after heating vs DMSO (PISA); higher = thermal stabilisation; K562 lysate, 10 uM; active = over 0.2 and 3.5 SD of the protein, either way, in both replicates (recomputed)
erlotinib = compound: C#Cc1cccc(Nc2ncnc3cc(OCCOC)c(OCCOC)cc23)c1 [erlotinib]
How it was run: (§1)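 Pellets of K562 cells were dounce-homogenised in PBS pH 7.4 with 1 mM MgCl2, and the crude extract was held at 1 mg/mL protein for a 30 min treatment with 10 μM compound. Aliquots were heated for 3 min over 48°C-58°C and pooled before NP-40 was added to 0.5% at 4°C. The supernatant from 21,000xg for 90 min was quantified by TMTpro 16plex LC-MS/MS with channel sums equalised. Values are reported from duplicates as log-two fold change in thermal stability relative to solvent controls.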

[1] = compound: C/C(=N\NC(=O)C1=CC(=CC=C1)S(=O)(=O)N2CCOCC2)/C3=C(C=CC(=C3)Cl)O
How it was run: as §1

[2] = compound: C1=CC(=CC=C1C2=NC3=C(N2)C=C(C=C3)C(=O)N)OC4=CC=C(C=C4)Cl
How it was run: as §1

[3] = compound: C1=CC2=C(C=CC(=C2)/C=C\3/C(=O)NC(=NCC4=CC=CS4)S3)N=C1
How it was run: as §1

[4] = compound: C1=CC=C2C(=C1)C3=NNC4=CC=CC(=C43)C2=O
How it was run: as §1

[5] = compound: CC(=O)c1cnc2ccc(-c3cc(Cl)c(O)c(Cl)c3)nc2c1N[C@H]1CC[C@H](CN(C)C)CC1
How it was run: as §1

[6] = compound: CC(C)C1=C2N=C(C=C(N2N=C1)NCC3=CC=CC=C3)NCCCCCCN
How it was run: as §1

[7] = compound: CC1=C(C=C(C=C1)NC(=O)C2=CC(=CC=C2)C(C)(C)C#N)NC3=CC4=C(C=C3)N=CN(C4=O)C
How it was run: as §1

[8] = compound: CC1=CC=C(C=C1)SC2=C3C=C(SC3=CN=C2)C(=O)N
How it was run: as §1

[9] = compound: C1=CC=C(C=C1)C2=NC(=C(N2)C3=CC=NC=C3)C4=CC(=C(C=C4)Cl)O
How it was run: as §1

[10] = compound: C1CCN(C1)C(=O)NC2=CC=CC(=C2)NC3=NC=C(C(=N3)NCCC4=CN=CN4)Br
How it was run: as §1

[11] = compound: C1CN(CCC1(CC2=CC=C(C=C2)Cl)N)C3=NC=NC4=C3C=CN4
How it was run: as §1

IRAK-1-4 Inhibitor I = compound: C1COCCN1CCN2C3=CC=CC=C3N=C2NC(=O)C4=CC(=CC=C4)[N+](=O)[O-] [IRAK-1-4 Inhibitor I]
How it was run: as §1

ralimetinib = compound: CC(C)(C)Cn1c(N)nc2ccc(-c3[nH]c(C(C)(C)C)nc3-c3ccc(F)cc3)nc21 [ralimetinib]
How it was run: as §1

[12] = compound: CC(C)(O)CC(=O)NCCn1ccc2ncnc(Nc3ccc(Oc4cccc(C(F)(F)F)c4)c(Cl)c3)c21
How it was run: as §1

[13] = compound: CC1=C(C(CC(=O)N1)C2=CC=C(C=C2)C(F)(F)F)C(=O)NC3=C(C=C4C(=C3)C=NN4)F
How it was run: as §1

[14] = compound: CC1=C(C2=C(C=C1)C(=O)C3=CC=CC=C3N2CCCN)C
How it was run: as §1

[15] = compound: CC1=C(C=C(C=C1)NC(=O)C2=CC(=CC=C2)N(C)C)NC(=O)C3=CC=C(C=C3)O
How it was run: as §1

[16] = compound: C1=CC2=NC=CN=C2C=C1/C=C/3\C(=O)NC(=O)S3
How it was run: as §1

ibrutinib = compound: C=CC(=O)N1CCC[C@@H](n2nc(-c3ccc(Oc4ccccc4)cc3)c3c(N)ncnc32)C1 [ibrutinib]
How it was run: as §1

Measured: log2 fold change

CMTM4 (UniProt Q8IZR5)
inactive: erlotinib -0.136 | [1] -0.197 | [2] 0.153 | [3] -0.233 | [4] -0.029 | [5] -0.132 | [6] -0.162 | [7] -0.006 | [8] 0

CKAP2L (UniProt Q8IYA6)
inactive: erlotinib -0.109 | [1] -0.022 | [2] -0.002 | [3] 0.077 | [9] -0.088 | [4] -0.097 | [10] 0.401 | [11] -0.078 | IRAK-1-4 Inhibitor I 0.117 | ralimetinib -0.032 | [12] -0.052 | [6] -0.336 | [13] 0.003 | [14] 0 | [7] 0.089 | [15] -0.173

CMTM6 (UniProt Q9NX76)
inactive: erlotinib 0.067 | [2] 0.018 | [16] -0.161 | [9] 0.036 | [10] -0.045 | [11] -0.065 | IRAK-1-4 Inhibitor I -0.062 | ibrutinib 0.043 | [5] 0.055 | ralimetinib -0.002 | [12] -0.028 | [6] -0.048 | [13] 0.009 | [14] 0.012 | [7] -0.043 | [15] -0.026 | [8] 0.086

CHPF2 (UniProt Q9P2E5)
inactive: erlotinib 0.025 | [1] -0.264 | [2] 0 | [3] 0.255 | [9] 0.075 | [4] -0.08 | [10] 0.02 | [11] -0.171 | IRAK-1-4 Inhibitor I 0.009 | ralimetinib 0.023 | [12] -0.02 | [6] -0.097 | [14] -0.09 | [7] 0.001 | [15] 0.032

CLUAP1 (UniProt I3L2E1)
inactive: erlotinib 0.142 | [1] 0.362 | [2] 0.095 | [3] -0.404 | [16] 0.068 | [9] 0.102 | [4] -0.124 | [10] -0.171 | [11] 0.081 | IRAK-1-4 Inhibitor I 0.179 | [5] -0.152 | ralimetinib -0.248 | [12] -0.446 | [6] 0.128 | [13] -0.113 | [7] 0.28 | [15] -0.167 | [8] -0.215

CLUAP1 (UniProt Q96AJ1)
inactive: erlotinib 0.025 | [1] 0.011 | [2] 0.061 | [3] 0.201 | [9] 0.039 | [4] -0.291 | [10] 0.139 | [11] 0.119 | IRAK-1-4 Inhibitor I -0.005 | [5] 0.059 | ralimetinib -0.008 | [12] -0.12 | [6] -0.124 | [14] -0.028 | [7] 0.152 | [15] -0.004 | [8] -0.137

CLIP2 (UniProt Q9UDT6)
inactive: erlotinib 0.027 | [2] 0.057 | [16] -0.05 | [10] 0.015 | [11] -0.153 | [5] -0.012 | [6] -0.067 | [14] -0.055 | [7] 0.024 | [8] -0.025

CLN3 (UniProt Q13286)
inactive: erlotinib -0.035 | [2] 0.06 | [16] -0.067 | [9] -0.011 | IRAK-1-4 Inhibitor I 0.069 | [5] 0.058 | ralimetinib -0.022 | [12] -0.026 | [6] -0.104 | [13] 0.112 | [14] -0.044 | [15] -0.007 | [8] -0.01

CLIP4 (UniProt Q8N3C7)
inactive: erlotinib -0.038 | [1] -0.026 | [2] -0.108 | [3] 0.029 | [16] -0.006 | [9] 0.04 | [4] 0.031 | [10] -0.011 | [11] 0.052 | IRAK-1-4 Inhibitor I -0.022 | [5] -0.045 | ralimetinib 0.049 | [12] -0.059 | [6] 0.005 | [13] 0.018 | [7] 0.012 | [15] -0.064 | [8] -0.014

CLIC6 (UniProt Q96NY7)
inactive: erlotinib 0.015 | [1] -0.07 | [2] 0.021 | [3] 0.02 | [16] 0.05 | [9] -0.04 | [4] -0.017 | [10] -0.125 | [11] -0.005 | IRAK-1-4 Inhibitor I -0.002 | [5] -0.081 | ralimetinib 0.04 | [12] 0.001 | [6] -0.063 | [14] -0.037 | [7] -0.002 | [15] 0.027 | [8] -0.047

CLDN12 (UniProt P56749)
inactive: erlotinib -0.087 | [2] -0.01 | [16] -0.037 | [9] 0.065 | [10] 0.047 | [11] 0.025 | IRAK-1-4 Inhibitor I 0.031 | [5] 0.05 | ralimetinib 0.006 | [12] -0.122 | [6] 0.222 | [13] 0.065 | [14] -0.03 | [7] 0.072 | [15] 0.057 | [8] -0.157

CLK3 (UniProt P49761)
inactive: erlotinib 0.055 | [1] -0.198 | [2] -0.084 | [3] 0.02 | [4] -0.032 | [10] -0.059 | [11] 0.088 | [5] -0.008 | [6] -0.01 | [14] -0.012 | [7] -0.018 | [8] 0.081

Two successive records out of the list so far, quoted:
CLN3 (UniProt Q13286)
inactive: erlotinib -0.035 | [2] 0.06 | [16] -0.067 | [9] -0.011 | IRAK-1-4 Inhibitor I 0.069 | [5] 0.058 | ralimetinib -0.022 | [12] -0.026 | [6] -0.104 | [13] 0.112 | [14] -0.044 | [15] -0.007 | [8] -0.01

CLIP4 (UniProt Q8N3C7)
inactive: erlotinib -0.038 | [1] -0.026 | [2] -0.108 | [3] 0.029 | [16] -0.006 | [9] 0.04 | [4] 0.031 | [10] -0.011 | [11] 0.052 | IRAK-1-4 Inhibitor I -0.022 | [5] -0.045 | ralimetinib 0.049 | [12] -0.059 | [6] 0.005 | [13] 0.018 | [7] 0.012 | [15] -0.064 | [8] -0.014

Going on with the list:

CLASRP (UniProt Q8N2M8)
inactive: erlotinib 0.004 | [1] -0.131 | [2] 0.021 | [3] 0.026 | [16] -0.069 | [9] -0.001 | [4] -0.008 | [10] 0.006 | [11] 0.04 | IRAK-1-4 Inhibitor I -0.05 | [5] 0.002 | ralimetinib 0 | [12] -0.096 | [6] -0.015 | [13] 0.031 | [14] -0.008 | [7] -0.036 | [15] 0.012 | [8] 0.01
